The other results are listed elsewhere or left out. The main result of the screen is listed elsewhere. These columns were measured beside it and carry no call.
Experiment: NIH3T3 cell viability loss – plate reader, cherry-pick, two tests, cytotoxicity control, dose response (AID 651900)
Conditions: test 2 concentration series, at 26 µM

Row | Compound | activity [%]
1 | CCc1nc2ccc(Br)cc2c(=O)n1-c1ccccc1C(F)(F)F | 0.608
2 | COc1cc2c3cc1Oc1cc(ccc1O)C[C@@H]1c4c(cc(OC)c(O)c4Oc4cccc(c4)C[C@@H]3N(C)CC2)CC[N+]1(C)C | 2.02
3 | Cc1nc2nc(SCC(=O)N3CCC4(CC3)OCCO4)nn2c(C)c1Cc1ccccc1 | 7.84
4 | O=c1[nH]c(N2CCN(Cc3ccc4c(c3)OCO4)CC2)nc2c1CCC2 | -6.66
5 | COc1ccc2c(c1)c(C(=O)CN1CCC3(CC1)OCCO3)c(C)n2Cc1ccccc1 | -9.94
6 | CC(=O)N1CCN(c2ccc([N+](=O)[O-])cc2C=C2C(=O)NC(=O)NC2=O)CC1 | 8.3
7 | O=[N+]([O-])c1ccc(C[n+]2c(-c3ccccc3)cc(-c3ccccc3)cc2-c2ccccc2)cc1 | 0.126

Reference: PubChem BioAssay AID651900 (Broad Institute, 2012)
